Record: PubChem BioAssay AID1259425 (University of Nebraska Medical Center, 2018)
In all, the deposit lists about 14,000 reagents; shown is a part drawn at random. Reagent sequences are not shown. The record does not give: the time to read-out.

Screen: 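Compare each knockdown with KSR1 silencing using changes in marker transcripts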 (primary screen)
Cells: HCT116 human colon cancer cells
Knock-down reagent: siRNA pool against human genes, 50 nM siRNA
Read-out: 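mRNA of six signature genes measured together by branched-DNA assay after 50 nM siRNA pool, blank removed, divided by geometric mean of two housekeeping genes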
Reading the numbers: BNIP3L mRNA: higher = more BNIP3L transcript after knockdown; NDRG1 mRNA: higher = more NDRG1 transcript after knockdown; BNIP3 mRNA: higher = more BNIP3 transcript after knockdown; ALDOC mRNA: higher = more ALDOC transcript after knockdown; ACSL5 mRNA: higher = more ACSL5 transcript after knockdown

no.	target	BNIP3L mRNA, set 1	NDRG1 mRNA, set 1	BNIP3 mRNA, set 1	ALDOC mRNA, set 1	ACSL5 mRNA, set 1
1	PDCL (GeneID 5082)	0.273	0.325	0.384	0.0563	0.433
2	KLF8 (GeneID 11279)	0.0941	0.25	0.186	0.00793	0.152
3	IGSF6 (GeneID 10261)	0.098	0.267	0.272	0.0248	0.324
4	FABP7 (GeneID 2173)	0.169	0.134	0.374	0.0485	0.0863
5	PRKCI (GeneID 5584)	0.111	0.0467	0.286	0.00369	0.152
6	CEP76 (GeneID 79959)	0.109	0.204	0.242	0.06	0.0952
7	LRIT1 (GeneID 26103)	0.0528	0.461	0.494	0.0644	0.186
8	C11orf58 (GeneID 10944)	0.224	0.322	0.202	0.0663	0.335
9	KCNAB3 (GeneID 9196)	0.0589	0.116	0.239	0.0107	0.0959
10	PLCB4 (GeneID 5332)	0.123	0.0654	0.245	0.00774	0.0523
11	TSPAN31 (GeneID 6302)	0.139	0.111	0.275	0.0106	0.102
12	FBN1 (GeneID 2200)	0.0843	0.178	0.23	0.0158	0.134
13	CA1 (GeneID 759)	0.118	0.19	0.266	0.0393	0.135
14	EFCAB7 (GeneID 84455)	0.15	0.334	0.259	0.0481	0.252
15	CHD7 (GeneID 55636)	0.0776	0.116	0.281	0.0251	0.161
16	C14orf132 (GeneID 56967)	0.13	0.178	0.385	0.0422	0.196
17	PRMT6 (GeneID 55170)	1.11	1.66	3.41	0.395	0.113
18	MOCS1 (GeneID 4337)	0.085	0.228	0.242	0.0304	0.201
19	SLK (GeneID 9748)	0.153	0.315	0.304	0.00687	0.178
20	TOR3A (GeneID 64222)	0.0425	0.331	0.287	0.0221	0.236
21	NLE1 (GeneID 54475)	0.296	0.588	0.906	0.091	0.207
22	USP11 (GeneID 8237)	0.0425	0.159	0.233	0.0445	0.14
23	TOPORS (GeneID 10210)	0.0961	0.081	0.273	0.0182	0.0819
24	TBX3 (GeneID 6926)	0.11	0.124	0.234	0.0192	0.109
25	PKD2L2 (GeneID 27039)	0.172	0.0912	0.133	0.0325	0.182
26	MLANA (GeneID 2315)	0.0759	0.23	0.302	0.00613	0.126
27	LCT (GeneID 3938)	0.0874	0.179	0.239	0.0356	0.128
28	NAT1 (GeneID 9)	0.0769	0.0888	0.297	0.0126	0.0825
29	ARHGAP35 (GeneID 2909)	0.0929	0.0357	0.275	0.0108	0.0942
30	KCNG3 (GeneID 170850)	0.142	0.295	0.285	0.033	0.154
31	PMS2P3 (GeneID 5387)	0.135	0.242	0.224	0.0592	0.0847
32	EXOSC10 (GeneID 5394)	0.064	0.15	0.386	0.00603	0.207
33	MAEL (GeneID 84944)	0.123	0.125	0.224	0.0267	0.168
34	ZNF532 (GeneID 55205)	0.127	0.0663	0.285	0.0155	0.19
35	TECTA (GeneID 7007)	0.0444	0.126	0.237	0.0175	0.0835
36	PCDHA11 (GeneID 56138)	0.112	0.413	0.339	0.0201	0.237
37	APBA2 (GeneID 321)	0.0494	0.157	0.188	0.0157	0.0879
38	WHRN (GeneID 25861)	0.123	0.244	0.448	0.0373	0.104
39	HOXC12 (GeneID 3228)	0.0739	0.223	0.244	0.0156	0.161
40	FAM13B (GeneID 51306)	0.116	0.165	0.257	0.0298	0.108
41	PPP2R2C (GeneID 5522)	0.0811	0.19	0.349	0.018	0.132
42	EML1 (GeneID 2009)	0.1	0.122	0.346	0.0303	0.162
43	AHCTF1 (GeneID 25909)	0.0878	0.562	0.247	0.0281	0.142
44	OPTC (GeneID 26254)	0.0703	0.294	0.498	0.0264	0.247
45	AOX1 (GeneID 316)	0.0629	0.161	0.248	0.0184	0.18
46	MAST4 (GeneID 375449)	0.078	0.176	0.337	0.0214	0.143
47	NOP53 (GeneID 29997)	0.116	0.359	0.43	0.011	0.233
48	RPS26 (GeneID 6231)	0.0949	0.124	0.342	0.0184	0.0495
49	NTN4 (GeneID 59277)	0.154	0.103	0.291	0.0704	0.0374
50	BCAN (GeneID 63827)	0.125	0.414	0.229	0.0202	0.178

No new results follow: 2 of the entries above.
no.	target	BNIP3L mRNA, set 1	NDRG1 mRNA, set 1	BNIP3 mRNA, set 1	ALDOC mRNA, set 1	ACSL5 mRNA, set 1
25	PKD2L2 (GeneID 27039)	0.172	0.0912	0.133	0.0325	0.182
26	MLANA (GeneID 2315)	0.0759	0.23	0.302	0.00613	0.126
